The results in this text go back to publication PMC10941658.

These are yes or no findings as the source states them, for the method shown. In cells and extracts the contact can be indirect. Some entries that bind do so weakly or less than the wild type. Where a sequence is shown, tags or fusion partners need not be part of it.

The test deals with T1, C-terminally HA-tagged MEIS2 (MEIS2b isoform) (mouse) (UniProt P97367).
T1 sequence: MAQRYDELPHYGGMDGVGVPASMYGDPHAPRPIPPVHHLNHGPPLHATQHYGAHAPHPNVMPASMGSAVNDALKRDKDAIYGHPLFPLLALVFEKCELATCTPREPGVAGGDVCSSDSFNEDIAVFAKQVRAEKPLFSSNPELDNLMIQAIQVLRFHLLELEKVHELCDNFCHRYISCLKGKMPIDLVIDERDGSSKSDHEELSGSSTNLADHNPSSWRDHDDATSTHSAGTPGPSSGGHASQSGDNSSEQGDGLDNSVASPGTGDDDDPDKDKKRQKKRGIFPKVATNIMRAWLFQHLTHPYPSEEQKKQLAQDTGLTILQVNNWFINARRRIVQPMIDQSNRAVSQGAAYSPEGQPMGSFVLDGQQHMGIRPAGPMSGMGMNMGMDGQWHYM
The test can be described thus: co-IP; HEK 293T cells transfected at once with plasmids for Pbx1 and HA-tagged Meis2b; immunoprecipitation with anti-HA antibodies on Dynabeads in calpain lysis buffer (50 mM Tris-HCl pH 7.5, 100 mM NaCl, 0.5 mM DTT, 250 mM glucose, 5% glycerol, 1% Triton X-100), elution with HA peptide; immunoblot for HA and PBX1.

B1: PBX1 (protein, UniProt P41778 1-430)
chain: MDEQPRLMHSHAGVGMAGHPGLSQHLQDGAGGTEGEGGRKQDIGDILQQIMTITDQSLDEAQARKHALNCHRMKPALFNVLCEIKEKTVLSIRGAQEEEPTDPQLMRLDNMLLAEGVAGPEKGGGSAAAAAAAAASGGAGSDNSVEHSDYRAKLSQIRQIYHTELEKYEQACNEFTTHVMNLLREQSRTRPISPKEIERMVSIIHRKFSSIQMQLKQSTCEAVMILRSRFLDARRKRRNFNKQATEILNEYFYSHLSNPYPSEEAKEELAKKCGITVSQVSNWFGNKRIRYKKNIGKFQEEANIYAAKTAVTATNVSAHGSQANSPSTPNSAGSSSSFNMSNSGDLFMSVQSLNGDSYQGAQVGANVQSQVDTLRHVISQTGGYSDGLAASQMYSPQGISANGGWQDATTPSSVTSPTEGPGSVHSDTSN
As to B1, the binding entry is listed as “binds”.
